Results as given in patent US20190322728A1 (PROTHENA BIOSCIENCES, published 2019).
Results are given in words; binding and its absence hold for the method and conditions named. Some entries that bind do so weakly or less than the wild type.

The chains behind the UniProt entries cited, without tags or fusion partners. Where a name states a change or a piece, a line headed by the entry shows the natural chain unless it says otherwise. A line that says so, or that is headed by a name, gives the form on record, which may keep a tag or linker.
UniProt P10636: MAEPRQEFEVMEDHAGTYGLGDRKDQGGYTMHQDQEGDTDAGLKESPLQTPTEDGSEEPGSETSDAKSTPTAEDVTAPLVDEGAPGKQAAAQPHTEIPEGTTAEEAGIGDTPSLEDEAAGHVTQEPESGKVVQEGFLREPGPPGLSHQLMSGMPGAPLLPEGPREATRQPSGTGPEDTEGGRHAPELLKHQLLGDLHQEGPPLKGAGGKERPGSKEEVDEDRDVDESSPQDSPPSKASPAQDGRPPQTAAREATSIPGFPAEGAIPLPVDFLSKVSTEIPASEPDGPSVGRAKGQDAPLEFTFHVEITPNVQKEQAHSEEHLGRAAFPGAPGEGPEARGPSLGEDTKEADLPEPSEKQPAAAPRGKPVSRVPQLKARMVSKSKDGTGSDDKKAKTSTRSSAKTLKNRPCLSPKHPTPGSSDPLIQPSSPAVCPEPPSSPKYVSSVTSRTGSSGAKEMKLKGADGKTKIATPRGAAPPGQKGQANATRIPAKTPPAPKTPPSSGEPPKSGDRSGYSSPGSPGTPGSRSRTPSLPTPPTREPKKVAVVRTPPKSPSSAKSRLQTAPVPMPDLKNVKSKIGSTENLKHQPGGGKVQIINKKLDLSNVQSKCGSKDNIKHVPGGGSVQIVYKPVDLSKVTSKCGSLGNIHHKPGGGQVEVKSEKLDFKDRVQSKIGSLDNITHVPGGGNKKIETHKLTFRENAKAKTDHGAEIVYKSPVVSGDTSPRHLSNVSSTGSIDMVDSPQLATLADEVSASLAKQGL
tau in human Alzheimer's disease brain (frontal cortex extracts and tissue sections) (P10636, form named): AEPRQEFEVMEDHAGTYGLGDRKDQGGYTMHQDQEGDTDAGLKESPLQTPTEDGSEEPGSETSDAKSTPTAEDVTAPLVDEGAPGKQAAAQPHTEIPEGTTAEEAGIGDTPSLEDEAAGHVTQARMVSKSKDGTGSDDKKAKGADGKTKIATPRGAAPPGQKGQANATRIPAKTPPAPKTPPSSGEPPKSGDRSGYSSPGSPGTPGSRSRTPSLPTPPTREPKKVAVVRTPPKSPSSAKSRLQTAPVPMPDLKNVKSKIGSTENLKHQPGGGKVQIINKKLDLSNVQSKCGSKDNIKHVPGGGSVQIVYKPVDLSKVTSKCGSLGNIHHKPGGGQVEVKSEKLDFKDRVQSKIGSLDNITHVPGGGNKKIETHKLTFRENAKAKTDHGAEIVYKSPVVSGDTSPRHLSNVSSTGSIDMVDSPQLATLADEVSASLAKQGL

Legend:
[1] = target: tau in human Alzheimer's disease brain (frontal cortex extracts and tissue sections) (human) (UniProt P10636); assay: immunohistochemistry on Alzheimer's disease brain cryosections
[2] = target: tau in human Alzheimer's disease brain (frontal cortex extracts and tissue sections) (human) (UniProt P10636); assay: double immunofluorescent labeling on Alzheimer's disease brain sections
[3] = target: tau in human Alzheimer's disease brain (frontal cortex extracts and tissue sections) (human) (UniProt P10636); assay: immunohistochemistry on Alzheimer's disease tissue, antibody at 1 ug/mL (column Stain AD Tissue)
[4] = target: tau in human Alzheimer's disease brain (frontal cortex extracts and tissue sections) (human) (UniProt P10636); assay: immunoprecipitation from Alzheimer's disease frontal cortex fractions, blot with polyclonal tau antibody
[5] = target: purified tau (Example 1) (UniProt P10636); assay: capture ELISA
[6] = target: tau deletion mutant Δ37-46 (printed A37-46) (human) (UniProt P10636); assay: Western blot of bacterial lysate, antibody at 0.2 µg/mL
[7] = target: tau in human Alzheimer's disease brain (frontal cortex extracts and tissue sections) (human) (UniProt P10636); assay: immunohistochemistry on Alzheimer's disease brain sections
[8] = target: tau in human Alzheimer's disease brain (frontal cortex extracts and tissue sections) (human) (UniProt P10636); assay: immunoprecipitation from Alzheimer's disease frontal cortex fractions with protein G beads, blot with polyclonal tau antibody

| binding [1] | binding [2] | binding [3] | binding [4] | binding [5] | binding [6] | binding [7] | binding [8] | Binder |
| --- | --- | --- | --- | --- | --- | --- | --- | --- |
| binds | binds | binds | binds | – | – | – | – | humanized 16B5, version H1L2 (antibody, V domains shown) VH: QVQLVQSGSELKKPGASVKVSCKASGYPFTYHGMDWVRQAPGQGLEWMGWINTYSGVPTYADDFKGRFVFSLDTSVSTAYLQISSLKAEDTAVYFCARRRDFTMDFWGQGTTVTVSS VL: NIVLTQSPDSLAVSLGERATINCKSSQSLLNSRTRKNYLAWFQQKPGQSPKLLIYWASTRESGVPDRFSGSGSGTDFTLTISSLQAEDVAVYYCKQSYTLRTFGGGTKVEIKR |
| – | – | – | binds | – | – | – | – | humanized 16B5, version H1L3 (antibody, V domains shown) VH: QVQLVQSGSELKKPGASVKVSCKASGYPFTYHGMDWVRQAPGQGLEWMGWINTYSGVPTYADDFKGRFVFSLDTSVSTAYLQISSLKAEDTAVYFCARRRDFTMDFWGQGTTVTVSS VL: DIVLTQSPDSLAVSLGERATINCKSSQSLLNSRTRKNYLAWFQQKPGQSPKLLIYWASTRESGVPDRFSGSGSGTDFTLTISSLQAEDVAVYYCKQSYTLRTFGGGTKVEIKR |
| binds | – | binds | – | binds | binds | binds | binds | 16B5 monoclonal antibody (mouse) (antibody, V domains shown, Mouse monoclonal antibody; The control 6F10 is called an IgG1 isotype control; also called Murine 16B5; pan antibody 16B5) VH: QIQLVQSGPELKKPGETVKISCKASGYPFTYHGMDWVKQAPWGGLEWMGWINTYSGVPTYADDFKGRFAFSLETSVGTAYLQINNLKNEDTATYFCARRRDFTMDFWGQGTSVTVSS VL: NIVLSQSPSSLAVSPGEKVTMSCKSSQSLLNSRTRKNYLAWFQQKPGQSPKLLIYWASTRESGVPDRFTGSGSGTDFTLTISSVQAEDLAVYYCKQSYTLRTFGGGTNLEIKR |
| – | – | binds | binds | – | – | – | – | chimeric 16B5 antibody (antibody, V domains shown) VH: QIQLVQSGPELKKPGETVKISCKASGYPFTYHGMDWVKQAPWGGLEWMGWINTYSGVPTYADDFKGRFAFSLETSVGTAYLQINNLKNEDTATYFCARRRDFTMDFWGQGTSVTVSS VL: NIVLSQSPSSLAVSPGEKVTMSCKSSQSLLNSRTRKNYLAWFQQKPGQSPKLLIYWASTRESGVPDRFTGSGSGTDFTLTISSVQAEDLAVYYCKQSYTLRTFGGGTNLEIKR |
